In PubChem BioAssay AID504834 (National Center for Advancing Translational Sciences (NCATS), 2011):
About 22,000 (6.9%) of roughly 320,000 compounds were called active. Inconclusive means that the source gave no clear call. Such entries were picked first, then a sample of the others. Calls follow the shape of the dose curve; as a rule, active = well fitted inhibition curve with a large enough effect; inconclusive = small, poorly fitted or top-dose-only effect, or another doubt; inactive = no such curve, though single readings can be large or run the other way. Potencies of inconclusive entries are doubtful fits and often do not repeat.

experiment: Primary qHTS for delayed death inhibitors of the malarial parasite plastid, 96 hour incubation; conditions: P. falciparum luciferase reporter growth; series mostly up to 28.7 µM; activity change, negative = inhibition: at the top concentration
Procedure, shortened: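 96 h incubation, 37 C, 5% CO2, of luciferase-reporter P. falciparum-infected RBCs (2% hematocrit, 0.05% parasitemia final) with test compounds; endpoint luminescence.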
% is scaled to controls: 0 for no effect and ±100 for the full control effect; potency is read from the fitted curve at half-maximal effect.

Row | Structure (SMILES) | Potency | activity change, negative = inhibition
1 | COCCCNC(=S)N1CCN(C(=O)c2ccco2)CC1 | inconclusive: 18.5 µM [inhibitor, single point] | –
2 | CC1CCc2c(sc3ncn(CCO)c(=O)c23)C1 (stereo unspecified) | inconclusive: 0.0037 µM [inhibitor, full curve, poor fit] | –
3 | CN1C(=O)N(C)c2cccc3cccc1c23 | inconclusive: 2.94 µM [inhibitor, full curve, poor fit] | –
4 | COc1ccccc1-n1cnnc1SCC(=O)Nc1ccccc1 | – | inactive: 48%
5 | O=C(CN(Cc1ccco1)S(=O)(=O)c1ccccc1)N/N=C/c1ccccc1C(=O)O | inconclusive: 9.28 µM [inhibitor, single point] | –
6 | CCCCCn1c(=O)[nH]c2cc(C(=O)Nc3ccc(OC)cc3)ccc2c1=O | inconclusive: 9.28 µM [inhibitor, partial curve] | –
7 | O=C(CSc1ccc(Cl)cc1)N1CCN(c2ccc(Cl)cc2[N+](=O)[O-])CC1 | – | inactive: 4.46%
8 | CCn1c(SCC(=O)O)nnc1-c1cc2c(C)nn(-c3ccccc3)c2s1 | – | inactive: 7.54%
9 | CCC(C)/C(C)=N/NC(=O)CSc1nc2ccccc2[nH]1 (stereo unspecified) | – | inactive: 6.51%
10 | COc1ccc(-c2cc(=O)oc3cc(OC(C)C(=O)NCCCn4ccnc4)ccc23)cc1 (stereo unspecified) | inconclusive: 18.5 µM [inhibitor, single point] | –
11 | COc1cccc(C(=O)Nc2cccc(NC(=O)c3cccs3)c2)c1 | inconclusive: 18.5 µM [inhibitor, single point] | –
12 | CCOC(=O)c1c(C)[nH]c(C)c1S(=O)(=O)NCc1ccccc1C | – | inactive: 10.4%
13 | CCc1ccc(OCc2nnc(-c3ccccc3Br)o2)cc1 | – | inactive: -0.961%
14 | Cc1cc(C)c(C#N)c(SCc2cn3ccccc3n2)n1 | inconclusive: 18.5 µM [inhibitor, single point] | –
15 | O=C(CN1C(=O)c2ccccc2C1=O)OC(C(=O)c1ccc(Cl)cc1)c1ccccc1 (stereo unspecified) | inconclusive: 16.5 µM [inhibitor, partial curve, poor fit] | –
16 | COC(=O)c1cccc(C(=O)Nc2ccc(C)cc2)n1 | inconclusive: 0.0415 µM [inhibitor, full curve, poor fit] | –
17 | CC(=C/C(=O)O)/C=C/c1ccc(Cl)o1 | – | inactive: 1.57%
18 | O=C(O)c1cn(-c2ccc(F)cc2)c2cc(Cl)c(F)cc2c1=O | inconclusive: 10.4 µM [inhibitor, single point] | –
19 | Cc1cccc(CCNC(=O)C2CCN(S(=O)(=O)N3CCOCC3)CC2)c1 | – | inactive: 32.5%
20 | CCOC(=O)c1cc2c(ccn2C)n1CC(=O)N1CCN(c2ccccc2OC)CC1 | – | inactive: -8.01%
21 | COc1ccc(C(=O)Nc2ccc(N3CCC(C)CC3)cc2)cc1Br | inconclusive: 10.4 µM [inhibitor, single point] | –
22 | COc1cccc(OC)c1C(=O)NC(=S)Nc1cccc(NC(=O)c2ccco2)c1 | – | inactive: -3.9%
23 | COC(=O)C(O)(c1ccc(N(C)C(=O)c2ccc(Cl)c(Cl)c2)cc1)C(F)(F)F (stereo unspecified) | – | inactive: -2.64%

Row | Structure (SMILES) | Potency | activity change, negative = inhibition
24 | Oc1ccc(COc2cccc3ccccc23)c2cccnc12 | active: 5.22 µM | –
25 | C=CCn1c2ccccc2n2nc(C)c(=O)nc12 | inconclusive: 18.5 µM [inhibitor, single point] | –
26 | O=C(NN=C1CCCC1)c1cc(O)cc(O)c1 | inconclusive: 14.7 µM [inhibitor, partial curve, poor fit] | –
27 | COCCn1c(SCC(=O)Nc2ccccc2C)nc2c(oc3ccccc32)c1=O | inconclusive: 3.7 µM [inhibitor, single point] | –
28 | CC1CN(C(=O)c2ccc(OC3CCN(Cc4ccccn4)CC3)cc2)CCN1C (stereo unspecified) | – | inactive: 67.4%
29 | COC(=O)/C=C/C(=O)N1CCN(c2ccccc2)CC1 | inconclusive: 18.5 µM [inhibitor, single point] | –
30 | O=C1NC(=O)N(C2CCCCC2)C(=O)C1C1c2ccccc2C(=O)N1Cc1ccccc1 (stereo unspecified) | inconclusive: 0.415 µM [inhibitor, full curve, poor fit] | –
31 | CCN1C(=O)/C(=C2/Sc3ccccc3N2CC)SC1=S | inconclusive: 16.5 µM [inhibitor, single point] | –
32 | O=C1CC(N2CCOCC2)C(=O)N1c1cc(Cl)cc(Cl)c1 (stereo unspecified) | inconclusive: 11.7 µM [inhibitor, single point] | –
33 | CCCCC(CCC(=O)O)(C(=O)OCC)c1csc(Nc2ccc(OCC)cc2)n1 (stereo unspecified) | inconclusive: 18.5 µM [inhibitor, single point] | –
34 | N#Cc1cccc(C(c2nnnn2Cc2ccccc2)N2CCCC2)c1 (stereo unspecified) | inconclusive: 0.415 µM [inhibitor, partial curve, poor fit] | –
35 | CC(C)(C)OC(=O)N1CCC(NC(=O)c2[nH]cnc2C(=O)Nc2ccc(Cl)cc2)CC1 | inconclusive: 18.5 µM [inhibitor, single point] | –
36 | CCCCc1ccc(N/C(N)=N/c2nc(C)cc(C)n2)cc1 | active: 4.15 µM | –
37 | c1coc(CNc2ncnc3ccccc23)c1 | inconclusive: 18.5 µM [inhibitor, single point] | –
38 | Cc1ccc(S(=O)(=O)/N=C(\N)c2ccc(F)cc2)cc1 | – | inactive: 20.4%
39 | Clc1ccc(-c2cn3ccccc3n2)cc1 | – | inactive: -70%
40 | COC(=O)C1=C(C)Nc2nnnn2C1c1cccnc1 (stereo unspecified) | inconclusive: 0.828 µM [inhibitor, partial curve, poor fit] | –
41 | CC(c1nnc(SCC(=O)c2c(N)n(C)c(=O)n(C)c2=O)n1-c1ccc(Cl)cc1)N(C)C (stereo unspecified) | inconclusive: 11.7 µM [inhibitor, single point] | –
42 | C/C(=N\NC(=O)c1ccc(OC2CCCC2)cc1)c1ccc(O)cc1 | active: 13.1 µM | –
43 | O=S(=O)(c1ccc(Br)cc1)c1nc(-c2ccccc2)oc1N1CCOCC1 | inconclusive: 20.8 µM [inhibitor, single point] | –
44 | COc1ccc(S(=O)(=O)N2CCN(C(=O)CCOc3ccccc3)CC2)cc1OC | – | inactive: -17.2%
45 | COc1ccc(C(=O)C2CCCN(S(=O)(=O)c3ccccc3F)C2)c(C)c1 (stereo unspecified) | inconclusive: 10.4 µM [inhibitor, single point] | –
46 | O=C(c1cnc2ccc3ccccc3c2c1)c1cc(F)ccc1O | inconclusive: 5.22 µM [inhibitor, partial curve, poor fit] | –

Part of the list above in order of number of heavy atoms, largest number first:
Row | Structure (SMILES) | Potency | activity change, negative = inhibition
27 | COCCn1c(SCC(=O)Nc2ccccc2C)nc2c(oc3ccccc32)c1=O | inconclusive: 3.7 µM [inhibitor, single point] | –
34 | N#Cc1cccc(C(c2nnnn2Cc2ccccc2)N2CCCC2)c1 (stereo unspecified) | inconclusive: 0.415 µM [inhibitor, partial curve, poor fit] | –
29 | COC(=O)/C=C/C(=O)N1CCN(c2ccccc2)CC1 | inconclusive: 18.5 µM [inhibitor, single point] | –
26 | O=C(NN=C1CCCC1)c1cc(O)cc(O)c1 | inconclusive: 14.7 µM [inhibitor, partial curve, poor fit] | –
